Test results reported in article PMC11612400.
Results are given in words; binding and its absence hold for the method and conditions named. For some of these results: Binding seen in cells or lysates may run through a third protein. Some binding calls cover weakened binding; strength is not graded here. For some of these results: Tags and fused reporters may be left off the sequences shown. Values belong to the molecule of their own block, whether it stands above or below them.

Protein sequences, listed by entry. Tags and fused reporters are not part of them.
UniProt P67936: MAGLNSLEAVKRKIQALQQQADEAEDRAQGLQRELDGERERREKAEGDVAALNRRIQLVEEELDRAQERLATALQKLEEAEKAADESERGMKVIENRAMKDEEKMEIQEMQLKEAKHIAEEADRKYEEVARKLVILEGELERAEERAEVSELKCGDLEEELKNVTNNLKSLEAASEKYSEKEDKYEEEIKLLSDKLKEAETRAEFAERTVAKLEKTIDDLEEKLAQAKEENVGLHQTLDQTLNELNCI
UniProt P14618: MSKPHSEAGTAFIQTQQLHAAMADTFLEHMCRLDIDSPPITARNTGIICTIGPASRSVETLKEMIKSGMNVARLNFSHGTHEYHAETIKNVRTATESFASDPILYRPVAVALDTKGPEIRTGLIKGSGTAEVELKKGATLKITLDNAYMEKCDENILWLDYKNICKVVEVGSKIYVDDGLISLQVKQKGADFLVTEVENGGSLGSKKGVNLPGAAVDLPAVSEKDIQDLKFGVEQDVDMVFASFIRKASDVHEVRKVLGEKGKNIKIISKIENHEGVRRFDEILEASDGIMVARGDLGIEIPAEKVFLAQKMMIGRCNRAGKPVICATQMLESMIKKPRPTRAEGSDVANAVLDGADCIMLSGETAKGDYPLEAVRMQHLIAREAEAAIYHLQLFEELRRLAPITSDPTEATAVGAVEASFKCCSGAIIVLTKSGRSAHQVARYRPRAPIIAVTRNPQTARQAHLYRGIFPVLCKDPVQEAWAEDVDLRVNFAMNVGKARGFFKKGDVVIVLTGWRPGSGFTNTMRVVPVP

Assays:
TPM4-GB = TPM4-GB (UniProt P67936); assay: fluorescent protein exchange (FPX); TPM4-GB, PFKM-GA and PKM2-RA expressed in MDA-MB-231 cells; green (GA/GB) and red (RA/GB) fluorescence imaged before (isosmotic) and after 100 mM sorbitol for 3 min
[1] = target: TPM4-AcGFP (tropomyosin 4 fused to AcGFP) (UniProt P67936); assay: proximity ligation; Duolink PLA on fixed MDA-MB-231 cells expressing TPM4-AcGFP, hyperosmotic condition (100 mM sorbitol for 3 min)
TPM4-GFP1–10 = TPM4-GFP1–10 (UniProt P67936); assay: split reporter; split-GFP system, TPM4-GFP1–10 and PFKM-GFP11 expressed in MDA-MB-231 cells, before (isosmotic) and after 100 mM sorbitol for 3 min

Molecule: PKM2-RA (from UniProt P14618 1-531) (enzyme)
binding (TPM4-GB): binds

B1: PFKM (phosphofructokinase muscle type), endogenous (enzyme, UniProt P08237 1-780)
chain: MTHEEHHAAKTLGIGKAIAVLTSGGDAQGMNAAVRAVVRVGIFTGARVFFVHEGYQGLVDGGDHIKEATWESVSMMLQLGGTVIGSARCKDFREREGRLRAAYNLVKRGITNLCVIGGDGSLTGADTFRSEWSDLLSDLQKAGKITDEEATKSSYLNIVGLVGSIDNDFCGTDMTIGTDSALHRIMEIVDAITTTAQSHQRTFVLEVMGRHCGYLALVTSLSCGADWVFIPECPPDDDWEEHLCRRLSETRTRGSRLNIIIVAEGAIDKNGKPITSEDIKNLVVKRLGYDTRVTVLGHVQRGGTPSAFDRILGSRMGVEAVMALLEGTPDTPACVVSLSGNQAVRLPLMECVQVTKDVTKAMDEKKFDEALKLRGRSFMNNWEVYKLLAHVRPPVSKSGSHTVAVMNVGAPAAGMNAAVRSTVRIGLIQGNRVLVVHDGFEGLAKGQIEEAGWSYVGGWTGQGGSKLGTKRTLPKKSFEQISANITKFNIQGLVIIGGFEAYTGGLELMEGRKQFDELCIPFVVIPATVSNNVPGSDFSVGADTALNTICTTCDRIKQSAAGTKRRVFIIETMGGYCGYLATMAGLAAGADAAYIFEEPFTIRDLQANVEHLVQKMKTTVKRGLVLRNEKCNENYTTDFIFNLYSEEGKGIFDSRKNVLGHMQQGGSPTPFDRNFATKMGAKAMNWMSGKIKESYRNGRIFANTPDSGCVLGMRKRALVFQPVAELKDQTDFEHRIPKEQWWLKLRPILKILAKYEIDLDTSDHAHLEHITRKRSGEAAV
binding [1]: binds

The remaining lines, values ahead:

binding (TPM4-GB): binds
B2: PFKM-GA (enzyme, UniProt P08237 1-780)
chain: B1 chain

binding (TPM4-GFP1–10): binds
B3: PFKM-GFP11 (enzyme, UniProt P08237 1-780)
chain: B1 chain
